# Values from PubChem BioAssay AID1259254 (NCATS, 2017)
# Assay: 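Gene knock-downs that lead to re-replication, shown by excess G2 DNA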 (primary screen)
# System: human HCT116 colorectal cancer cells
# Reagent: single siRNA against human genes
# Timing: 3 days
# Read-out: 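Imaged Hoechst DNA stain sorts each cell into a cycle phase by DNA amount; per plate, G2 fraction set to 0% for non-targeting and 100% for GMNN siRNA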
# Scale: G2 robust z-score: higher = more G2 cells, more excess DNA replication
# Active means: 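An siRNA counts as active if its G2 robust z-score lies at least 5 MADs above the screen median; here such calls match roughly 38% of GMNN control or more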
# In all, the deposit lists about 59,000 reagents; this is a part drawn at random. Of all reagents, about 1,550 (2.6%) are marked active. 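G2 share is only a proxy for re-replication; each gene was hit by three separate siRNAs, and active genes were retested.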 Reagents against one gene are numbered here. Not all columns of the deposit are shown. No sequences are given here. Not given: the amount of reagent.
Target gene,reagent,G2 robust z-score,Call
AGAP3,1,0.572,inactive
AGAP3,2,1.32,inactive
AGAP3,3,-1.08,inactive
RNF115,1,2.77,inactive
RNF115,2,0.653,inactive
RNF115,3,2.94,inactive
KRTAP6-2,1,0.259,inactive
KRTAP6-2,2,-0.146,inactive
KRTAP6-2,3,-0.0886,inactive
SULT6B1,1,-0.261,inactive
SULT6B1,2,-0.239,inactive
SULT6B1,3,0.289,inactive
KRTAP4-4,1,7.4,active
KRTAP4-4,2,1.22,inactive
KRTAP4-4,3,-0.696,inactive
RPGR,1,-0.452,inactive
RPGR,2,0.388,inactive
RPGR,3,-0.321,inactive
OR11H12,1,0.811,inactive
OR11H12,2,-0.711,inactive
OR11H12,3,-0.14,inactive
RIGI,1,0.144,inactive
RIGI,2,-0.117,inactive
RIGI,3,0.432,inactive
TM2D2,1,2.07,inactive
TM2D2,2,-0.938,inactive
TM2D2,3,-0.369,inactive
LOC647983 (retired record),1,-0.955,inactive
LOC647983 (retired record),2,4.06,inactive
LOC647983 (retired record),3,-1,inactive
SOX15,1,2.43,inactive
SOX15,2,0.836,inactive
SOX15,3,0.519,inactive
RORB,1,-1.35,inactive
RORB,2,-1.24,inactive
RORB,3,2,inactive
RANBP6,1,0.62,inactive
RANBP6,2,-1.34,inactive
RANBP6,3,-0.256,inactive

Hits, among the entries above:
Target gene,reagent,G2 robust z-score,Call
KRTAP4-4,1,7.4,active

More results follow.
Target gene,reagent,G2 robust z-score,Call
PRDM12,1,-1.26,inactive
PRDM12,2,-0.449,inactive
PRDM12,3,0.0399,inactive
STIM1,1,-0.139,inactive
STIM1,2,2.25,inactive
STIM1,3,0.209,inactive
RPTOR,1,1.56,inactive
RPTOR,2,-0.591,inactive
RPTOR,3,-0.679,inactive
NOL8,1,0.0255,inactive
NOL8,2,1.4,inactive
NOL8,3,2.24,inactive
NDUFAF4,1,0.134,inactive
NDUFAF4,2,0.0675,inactive
NDUFAF4,3,0.00912,inactive
PTRH1,1,1.3,inactive
PTRH1,2,-0.839,inactive
PTRH1,3,0.181,inactive
ZNF572,1,-0.0176,inactive
ZNF572,2,-0.224,inactive
ZNF572,3,0.917,inactive
DEFB129,1,-1.16,inactive
DEFB129,2,1.65,inactive
DEFB129,3,0.167,inactive
TNFSF9,1,3.47,inactive
TNFSF9,2,1.45,inactive
TNFSF9,3,0.365,inactive
YJEFN3,1,-0.201,inactive
YJEFN3,2,2.45,inactive
YJEFN3,3,0.224,inactive
DNAJB13,1,4.35,inactive
DNAJB13,2,-0.617,inactive
DNAJB13,3,1.27,inactive
SELENON,1,0.606,inactive
SELENON,2,-0.755,inactive
SELENON,3,0.742,inactive
TMEM234,1,-1.13,inactive
TMEM234,2,0.303,inactive
TMEM234,3,1.64,inactive
MED30,1,3.03,inactive
MED30,2,0.246,inactive
MED30,3,-0.0844,inactive
SLC2A13,1,0.66,inactive
SLC2A13,2,-0.789,inactive
SLC2A13,3,3.07,inactive
SLITRK1,1,0.722,inactive
SLITRK1,2,-0.299,inactive
SLITRK1,3,1.94,inactive
